# Assay results taken from the supplement of paper PMC12889115.
# The other results are listed elsewhere or left out. Values are raw readings; no control value is given beside them.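 In the initial screen, polymyxin B was used at a concentration that permeabilizes Salmonella's outer membrane but not its inner membrane. Maximum growth was set by DMSO wells with or without polymyxin B. Since plates varied, data were ranked per plate, and compounds giving the lowest OD600 advanced as hits.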
# Tested on: Salmonella enterica serovar Typhimurium SL1344
# Assay: bacterial growth OD600 after 18 h with compound and polymyxin B; higher = more bacterial growth (less inhibition)
# Conditions: 50 µM, Mueller-Hinton broth
SMILES,bacterial growth OD600 (polymyxin B 0.75 µg/mL),bacterial growth OD600 (polymyxin B 1 µg/mL)
CCOC(=O)N1CCN(Cc2ccc3c(c2)CN(C(=O)c2cccs2)CCO3)CC1,0.84,
CC(=O)NC1CCCc2nc(N3CCC(CO)CC3)ncc21 (stereo unspecified),0.829,
O=C(Nc1ccc(Oc2cccnc2)cc1)C1CCN(Cc2cccc(O)c2)CC1,,1.06
COc1ccc(CCC2CCCN(C(=O)CSC)C2)cc1 (stereo unspecified),0.368,
CCOC(=O)N1CCN(C(=O)c2cn(C3CCCCCC3)nn2)CC1,,0.969
COc1ccc(CNC(=O)C2CCC(=O)N(C3CCCCCC3)C2)c(OC)c1 (stereo unspecified),,0.84
Cc1nc2cc(OCc3nc(C(=O)NCc4ccccn4)co3)ccc2s1,,0.84
COc1ccc(C(=O)Nc2ccnn2C2CCN(C(=O)c3cccs3)CC2)cc1,,0.851
O=C(CC(c1cccc(O)c1)c1ccccc1Cl)NC1CC1 (stereo unspecified),,0.78
CCOC(=O)C1(Cc2ccc(Cl)cc2)CCN(Cc2cccc3nonc23)CC1,,0.714
COCC(=O)Nc1cc(C(=O)N(C)Cc2nc3ccc(F)cc3[nH]2)c2c(c1)nc(C1CCC1)n2C,0.802,
COCC(=O)N1CCC(Oc2ccccc2C(=O)N(C)Cc2nc(C)c[nH]2)CC1,,1.02
Cc1nc(N2CCC(C(=O)NC3C4CC5CC(C4)CC3C5)CC2)nc2cc(S(C)(=O)=O)ccc12 (stereo unspecified),0.547,
O=C(c1cn(C2CCCCC2)nn1)N1CCCCC1c1cccnc1 (stereo unspecified),,0.835
CN(C(=O)c1ccccn1)C(Cc1ccccc1)C1CCN(C(=O)/C(F)=C/c2ccccc2)CC1 (stereo unspecified),0.002,
C=Cc1ccc(C(=O)N2CCOc3ccc(C(O)CCc4ccccc4)cc3C2)cc1 (stereo unspecified),0.507,

SMILES,bacterial growth OD600 (polymyxin B 0.75 µg/mL),bacterial growth OD600 (polymyxin B 1 µg/mL)
CN(Cc1ccccc1)C(=O)c1coc(COc2ccc3c(c2)OCO3)n1,,0.699
CN(C)C(=O)C1CCCN(C2CCN(c3nc4ccccc4o3)CC2)C1 (stereo unspecified),0.798,
COCC1CCCN(Cc2ccc3c(c2)CN(C(=O)CCn2cnc4ccccc4c2=O)CCO3)C1 (stereo unspecified),0.926,
CCN1CCN(C2(C(=O)N3CCC(OC)CC3)Cc3ccccc3C2)CC1,0.828,
CC(=O)NCCC(=O)N(C)CC1CCN(CCc2ccccc2F)CC1,,1.19
Cc1ncsc1CCC(=O)NCc1nc(-c2cccc(NC(=O)C3CCCN(C)C3)c2)oc1C (stereo unspecified),0.856,
Cc1ccc(-c2cn3c(C(=O)N4CCCCCCC4)csc3n2)cc1,,0.379
CO[C@H]1[C@H](NC(=O)c2ccncc2)c2ccccc2C12CCN(C(=O)Cc1c(F)cccc1F)CC2,0.998,
COc1cccc(-c2cc(CC3(O)CCN(Cc4cccc5c4OCO5)CC3)on2)c1,,0.922
COc1ccc(-c2nc(CN(C)Cc3nonc3C)c(C)o2)c2ccccc12,,0.844
CC(C)CCNC(=O)C1CCCN(C2CCN(CCc3ccccc3)CC2)C1 (stereo unspecified),,0.925
CC(C)(O)C#Cc1ccc(CN2CCCC(CNC(=O)c3cccnc3)C2)s1 (stereo unspecified),,0.878
CCN(Cc1nccn1C)C(=O)c1ccc(NCC2CCCOC2)nc1 (stereo unspecified),,0.898
COc1ccccc1C1CN(Cc2cc(OC)c(O)c(OC)c2)Cc2ccccc2O1 (stereo unspecified),0.607,
CC(C)CN1CCC(C2CCN(C(=O)c3ccnc(N)c3)C2)CC1 (stereo unspecified),0.848,

# Among those listed so far, six contain a halogen.
SMILES,bacterial growth OD600 (polymyxin B 0.75 µg/mL),bacterial growth OD600 (polymyxin B 1 µg/mL)
O=C(CC(c1cccc(O)c1)c1ccccc1Cl)NC1CC1 (stereo unspecified),,0.78
CCOC(=O)C1(Cc2ccc(Cl)cc2)CCN(Cc2cccc3nonc23)CC1,,0.714
COCC(=O)Nc1cc(C(=O)N(C)Cc2nc3ccc(F)cc3[nH]2)c2c(c1)nc(C1CCC1)n2C,0.802,
CN(C(=O)c1ccccn1)C(Cc1ccccc1)C1CCN(C(=O)/C(F)=C/c2ccccc2)CC1 (stereo unspecified),0.002,
CC(=O)NCCC(=O)N(C)CC1CCN(CCc2ccccc2F)CC1,,1.19
CO[C@H]1[C@H](NC(=O)c2ccncc2)c2ccccc2C12CCN(C(=O)Cc1c(F)cccc1F)CC2,0.998,
